Assay results published in patent US20160090416A1 (NUMAB, published 2016).
Results are given in words; binding and its absence hold for the method and conditions named. Some results given as binding are weak or reduced against the parent protein; the word gives no strength.

The chains behind the UniProt entries cited, without tags or fusion partners. Where a name states a change or a piece, a line headed by the entry shows the natural chain unless it says otherwise.
UniProt P07766: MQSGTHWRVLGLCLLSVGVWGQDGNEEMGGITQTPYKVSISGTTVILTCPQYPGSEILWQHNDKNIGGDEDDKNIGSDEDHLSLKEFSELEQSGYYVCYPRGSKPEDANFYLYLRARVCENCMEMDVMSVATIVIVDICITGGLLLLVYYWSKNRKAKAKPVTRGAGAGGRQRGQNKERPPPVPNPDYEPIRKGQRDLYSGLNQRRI
UniProt P09693: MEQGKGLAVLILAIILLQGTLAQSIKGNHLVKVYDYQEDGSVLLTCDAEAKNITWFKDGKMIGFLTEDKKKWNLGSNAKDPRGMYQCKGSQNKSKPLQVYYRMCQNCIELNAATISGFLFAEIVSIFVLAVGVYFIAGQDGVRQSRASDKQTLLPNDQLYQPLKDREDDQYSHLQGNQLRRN

B1: clone-03 (antibody, V domains shown)
VH: QSLEESGGRLVTPGTPLTLTCTVSGFPLNRYAMLWVRQAPGKGLEWIGLITRADKKYYASWAKGRFTISKTSTTVDLEITGPTTEDTATYFCARRHYNTDGYPIAIGDLWGPGTLVTVSS
VL: AQVLTQTPSSVSAAVGGTVTISCQSNENIYSNNRLSWFQQKPGQPPNQLIYSASSLASGVPSRFKGSGSGTQFTLTISDLECDDAATYYCQGEFNCNSADCFTFGGGTEVVVKG
B2: clone-06 (antibody, V domains shown)
VH: QSVEESGGRLVTPGTPLTLTCTVSGFPLSSYAMIWVRQAPGKGLEWIGMILRAGNIYYASWVKGRVTISKTSTTVDLKITSPTTEDTATYFCARRHYNREGYPIGIGDLWGPGTLVTVSS
VL: AQVLTQTPSSVSAAVGGTVTISCQSSESVYNNKRLSWFQQKPGQPPKQLIYTASSLASGVPSRFKGSGSGTQFTLTISDLECDDAATYYCQGEFTCSNADCFTFGGGTEVVVKG
B3: clone-02 (antibody, V domains shown)
VH: QSLEESGGRLVTPGTPLTLTCTVSGFPLSAYAMIWVRQAPGKGLEWIGMIIRSGTVYYANWAKGRFTISKTSTTVDLKITSPTTEDTATYFCARRHYNADGYPIGIGDLWGPGTLVTVSS
VL: AQVLTQTPSSVSAVVGGTVTISCQSSESVYSNNRLSWFQQKPGQPPKLLIYSASTLASGVPSRFKGSGSGTQFTLTITDLECDDAATYFCQGEFSCSSVDCFSFGGGTEVVVKG
B4: clone-04 (antibody, V domains shown)
VH: QSLEESGGRLVKPDETLTLTCTVSGFPLSSYAMGWFRQAPGKGLEWIGMILRSDNTYYASWAKGRFTISKTSTTVDLKITSPTTEDTATYFCARRHYNASGNPIAIGDLWGPGTLVTVSS
VL: AQVLTQTPSSVSAAVGGTVTINCQSSQSVYNNNRLSWFQQKPGQPPKLLIYTTSSLASGVPSRFKGSGSGTEFTLTISDLECADAATYYCQGEFSCSRADCFNFGGGTEVVVKG

Target: human heterodimeric single-chain CD3εγ extracellular domain (human) (UniProt P07766+P09693)
Assay: SPR (comparison in words)

binding, binds:
B1
B2
B3
B4
